Measured values: article PMC5688089
Results are given in words; binding and its absence hold for the method and conditions named. In cells and extracts the contact can be indirect. Some entries that bind do so weakly or less than the wild type.

Biological target: T1, RANK (receptor activator of NF-κB) (mouse (endogenous in BMMs)) (UniProt O35305)
T1 sequence: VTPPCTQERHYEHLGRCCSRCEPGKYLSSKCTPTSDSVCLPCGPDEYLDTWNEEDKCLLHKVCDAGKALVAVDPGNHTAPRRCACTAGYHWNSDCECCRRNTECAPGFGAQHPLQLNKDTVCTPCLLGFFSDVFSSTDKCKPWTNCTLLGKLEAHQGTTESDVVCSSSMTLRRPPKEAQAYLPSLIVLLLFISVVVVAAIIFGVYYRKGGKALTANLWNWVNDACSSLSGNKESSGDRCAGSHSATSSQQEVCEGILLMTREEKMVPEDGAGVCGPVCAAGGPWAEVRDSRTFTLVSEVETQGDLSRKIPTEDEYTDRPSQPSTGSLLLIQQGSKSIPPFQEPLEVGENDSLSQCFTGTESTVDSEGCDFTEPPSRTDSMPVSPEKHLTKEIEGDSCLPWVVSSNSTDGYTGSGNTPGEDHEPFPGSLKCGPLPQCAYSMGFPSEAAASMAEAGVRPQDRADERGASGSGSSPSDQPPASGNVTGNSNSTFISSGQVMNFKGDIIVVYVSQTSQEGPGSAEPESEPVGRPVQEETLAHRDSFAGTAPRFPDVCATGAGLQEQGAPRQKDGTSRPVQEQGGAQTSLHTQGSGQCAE
Test: co-IP; endogenous proteins from lysates of mouse BMMs (WT or DJ-1 KO) starved 5 h and stimulated with RANKL (100 ng/ml), with or without H2O2 (100 μM); lysis in 20 mM HEPES pH 7.5, 150 mM NaCl, 1% Nonidet P-40, 60 mM octyl β-glucoside; overnight at 4 °C with specific antibodies, protein A/G-agarose; immunoblot

B1: TNF receptor-associated factor 6 (TRAF6) (protein, UniProt P70196 1-530)
chain: MSLLNCENSCGSSQSSSDCCAAMAASCSAAVKDDSVSGSASTGNLSSSFMEEIQGYDVEFDPPLESKYECPICLMALREAVQTPCGHRFCKACIIKSIRDAGHKCPVDNEILLENQLFPDNFAKREILSLTVKCPNKGCLQKMELRHLEDHQVHCEFALVNCPQCQRPFQKCQVNTHIIEDCPRRQVSCVNCAVSMAYEEKEIHDQSCPLANIICEYCGTILIREQMPNHYDLDCPTAPIPCTFSVFGCHEKMQRNHLARHLQENTQLHMRLLAQAVHNVNLALRPCDAASPSRGCRPEDPNYEETIKQLESRLVRQDHQIRELTAKMETQSMYVGELKRTIRTLEDKVAEMEAQQCNGIYIWKIGNFGMHLKSQEEERPVVIHSPGFYTGRPGYKLCMRLHLQLPTAQRCANYISLFVHTMQGEYDSHLPWPFQGTIRLTILDQSEALIRQNHEEVMDAKPELLAFQRPTIPRNPKGFGYVTFMHLEALRQGTFIKDDTLLVRCEVSTRFDMGGLRKEGFQPRSTDAGV
  binding: binds
